# Experimental data: paper PMC12040169 (PLOS Biology, 2025)
# Some of the results follow.
# Tested on: T1, CTL2-GFP (C. trachomatis L2/434/Bu, GFP-expressing)
# T1 construct: L2/434/Bu, GFP-expressing
# Parameters: species or system HeLa; Intracellular C. trachomatis growth in HeLa cells, bulk GFP fluorescence relative to DMSO
# Conditions: bulk GFP, single well; 28.5 h, 10 µM; inhibitor
row,SMILES,% of control remaining [%]
1,Cc1cc2occ(CC(=O)NCC(C)n3cncn3)c2cc1C (centres unmarked) [CBK282614],108.414
2,O=C(Nc1ccc(Cl)nc1)C(F)(F)F [CBK091339],76.3519
3,O=C(CSc1ccccn1)Nc1ccc(C(=O)O)cc1 [CBK286605],148.528
4,Cc1cc(C(=O)N2CCN(Cc3ccco3)C[C@@H]2C(C)C)c(C)[nH]1 [CBK284254],172.351
5,Cc1nc(CC(=O)Nc2ccc(N3CCOCC3)cc2)cs1 [CBK304339],140.765
6,O=C(NCCCNC(=O)c1ccc(Cl)cc1Cl)c1ccncc1 [CBK269372],80.1102
7,CS(=O)(=O)N1CC2(CCN(Cc3cccc(C(F)(F)F)c3)CC2)c2ccccc21 [CBK126670],120.089
8,O=C1CC(c2ccccc2)CC(=O)C1=CNCc1ccccn1 (centres unmarked) [CBK262521],109.483
9,CNC(=O)c1nc(NC)oc1C [CBK059214],103.917
10,O=C(O)[C@@H]1CCCN1c1nc(O)cc(C(F)(F)F)n1 [CBK002865],102.079
11,COc1ccc(Cl)cc1S(=O)(=O)N1CCC(C(=O)NCCCO)CC1 [CBK269835],104.073
12,COC(=O)CCn1c(-c2ccncc2)cc2cccnc21 [CBK282592],120.394
13,CN(Cc1ccc(-c2ccc(S(C)(=O)=O)cc2)nc1)C1CCN(C(=O)c2ccc(Cl)c(Cl)c2)CC1 [CBK164101T],109.457
14,CC1(C)CC(=O)c2sc(NC(=O)c3ccc4ncccc4c3)nc2C1 [CBK144105],107.945
15,O=C(Nc1ccccc1F)C1CCCN1c1nc(O)cc(C(F)(F)F)n1 (centres unmarked) [CBK004307],84.9716
16,CCOc1ccc(-c2ccnc(NCCNC(C)=O)n2)cc1C(=O)O [CBK306898],154.649
17,O=C(c1ccco1)N1CCN(c2cncc(-c3cccc4cccnc34)n2)CC1 [CBK037339],120.229
18,CCn1c(C)cc2cc(NC(=O)c3cnc(C)nc3C)ccc21 [CBK283260],76.757
19,CN(CC(=O)Nc1nnc[nH]1)S(=O)(=O)c1ccc(Br)cc1 [CBK268618],141.858
20,CSc1ccc(-c2nc(C)c(C(C)=O)n2O)cc1 [CBK288356],132.075
21,COc1ccc2nc(Nc3nnc(-c4ccco4)o3)sc2c1 [CBK287486],119.083
22,O=C(Cn1c(=O)n(Cc2cccs2)c2ncccc21)NC1CC1 [CBK283898],133.172
23,C=CCn1c(-c2sc(NC(=O)c3ccc(Cl)cc3F)nc2C)n[nH]c1=S [CBK295361],143.553
24,O=C(Cn1cccc2cc(C3CCCNC3)nc1-2)NC1CCCC1 (centres unmarked) [CBK285015],107.678
25,CC(C)(C)c1cc(N2C(=O)C(O)=C(C(=O)c3ccc(Cl)cc3)C2c2cccc([N+](=O)[O-])c2)no1 (centres unmarked) [CBK263470],136.111
26,COc1ccccc1C(=O)N[C@H]1C[C@@H](c2nc(-c3cnccn3)no2)N(C)C1 [CBK288850],109.794
27,O=C(O)c1ccc(COc2cccc(/C=N\O)c2)cc1 [CBK288501],107.663

row,SMILES,% of control remaining [%]
1,C=CCNc1nccnc1-c1ccccc1OC [CBK036831],122.554
2,COc1cc(CNc2cc(-c3ccc(NC(C)=O)cc3)ncn2)cc(OC)c1OC [CBK091185],183.593
3,CC12CN3CC(C)(CN(C1)C3c1ccc([N+](=O)[O-])cc1)C2 (centres unmarked) [CBK262665],92.6383
4,O=C(O)CCC(=O)N1CCCc2ccccc21 [CBK051167],143.531
5,Cc1ccc(-c2nnc(COC(=O)c3cc(O)nc4ccccc34)o2)cc1 [CBK269741],112.712
6,CS(=O)(=O)c1cccc(C(=O)n2c(=O)n(CC3CCCCC3)c3ccccc32)c1 [CBK106520],104.75
7,CCOC(=O)c1c(NC(=O)CCN2CCCCC2)sc2c1CCCCC2 [CBK265319G],121.159
8,Cc1nc(C)n(CCNC(=O)Cc2coc3cc(C)c(C)cc23)n1 [CBK282613],107.433
9,CCC(=O)Nc1ccc(-c2csc(N3CCSCC3)n2)cc1 [CBK306469],108.065
10,S=C(NCc1ccccc1)Nc1ccccc1 [CBK091617],95.9708
11,CCOc1ccc(C(=O)Nc2nc(-c3ccc(F)cc3)cs2)cc1 [CBK072020],113.979
12,O=C1C2C3C=CC(C3)C2C(=O)N1CCN1CCNCC1 (centres unmarked) [CBK278185C],117.914
13,Nc1cc2cccnc2nc1-c1cccc2cccnc12 [CBK067609],107.018
14,COc1ccc(CCNC(=O)c2cc(-c3ccc(C)o3)nc3ccccc23)cc1OC [CBK265486],92.5901
15,COc1cc(CNC(=O)N2CCN(CCc3ccccc3)CC2)cc(OC)c1OC [CBK158910],108.739
16,CC(=O)c1ccccc1OCCOCCN1CCCC(C)C1 (centres unmarked) [CBK269625C],100.58
17,COc1ncc(-c2cncc(Nc3cccc(C#N)c3)n2)c(OC)n1 [CBK066022],180.649
18,CN(C)C(=O)c1ccc(-c2ncc(OCCN3CCOCC3)nc2N)cc1 [CBK145183],100
19,CNC(=S)N/C(=N/c1ccccc1)c1ccccc1 [CBK261037],99.3486
20,O=C(c1cc(F)c(F)cc1F)N1CCC2(CCN(Cc3cccc(C(F)(F)F)c3)C2)C1 (centres unmarked) [CBK132130],119.857
21,Cc1cccc(-c2ncc(NC(=O)CCc3cccnc3)nc2-c2ccc(N)cc2)c1 [CBK036684],136.829
22,COc1ccc(NC(=O)CSc2nc(C)c(Cc3ccc(O)cc3)[nH]2)cc1 [CBK291171],134.071
23,CC(CNC(=O)C(C)Oc1ccccc1)CN(C)C (centres unmarked) [CBK268658],128.01
24,O=C(NCCCNc1c(Cl)cccc1[N+](=O)[O-])c1ccc(F)cc1 [CBK264943],107.858
25,O=C(O)/C=C/c1cccc(-c2cnc(N3CCOCC3)c3nccn23)c1 [CBK091263],100.659
26,O=C(Cn1nnc(-c2ccccc2)n1)Nc1cccc([N+](=O)[O-])c1 [CBK263057],100
27,CC(C)COC(=O)N1CCC(C(=O)NC(c2ccc(Cl)cc2)c2cnccn2)CC1 (centres unmarked) [CBK059668],142.32

# Reprinted at random: 2 entries already listed.
row,SMILES,% of control remaining [%]
19,CN(CC(=O)Nc1nnc[nH]1)S(=O)(=O)c1ccc(Br)cc1 [CBK268618],141.858
15,COc1cc(CNC(=O)N2CCN(CCc3ccccc3)CC2)cc(OC)c1OC [CBK158910],108.739

# The list continues.

row,SMILES,% of control remaining [%]
1,O=C(c1ccc(F)cc1)N1CCC[C@@H]1Cn1c(=O)oc2ccccc21 [CBK284529],124.673
2,O=S(=O)(c1ccc(Cl)s1)N1CCN(c2ccccc2Cl)CC1 [CBK045098],116.821
3,O=C1CNC(=O)C2(C/C=C/C[C@H]3COCC[C@H]3N1)CCN(C(=O)c1ccc(=O)[nH]n1)CC2 [CBK292161],127.276
4,CC1CN(CCC(=O)O)Cc2cc(Cl)ccc2O1 (centres unmarked) [CBK286899],106.19
5,CCN1CC2(CCN(Cc3cc(OC)c(OC)c(OC)c3)CC2)c2ccccc21 [CBK131477],102.667
6,CCN1CC2(CCN(Cc3c(F)cccc3F)CC2)c2ccccc21 [CBK136986],108.062
7,COc1ccc(CCNC(=O)Cn2ccc(C3CCCNC3)n2)cc1 (centres unmarked) [CBK304444],103.803
8,CC(=O)N1CCN(c2ncnc3c2nnn3-c2ccccc2)CC1 [CBK287753],101.234
9,COc1ccc(CCN2C(=O)CC(Nc3ccc(N4CCOCC4)cc3)C2=O)cc1OC (centres unmarked) [CBK266322],176.933
10,CCCc1ccc(S(=O)(=O)Nc2ccccc2C(=O)O)cc1 [CBK042366],100
11,O=C1NCCCC12CCN(Cc1cccs1)CC2 [CBK285346],140.551
12,O=C(NCCO)c1cccc(-c2cncc(N3CCN(Cc4ccccn4)CC3)n2)c1 [CBK065784],151.889
13,COc1ccc(Cc2n[nH]c(=O)n2-c2ccccc2)cc1 [CBK000112],166.655
14,CC(C)(C)C1CCC(OCC(O)CN2CCN(CCO)CC2)CC1 (centres unmarked) [CBK278263C],130.999
15,COc1cc(F)cc(OC2CCNCC2)c1NC(=O)C1=CC(=O)CC(C)(C)O1 [CBK050352T],129.857
16,O=C(NC(c1ccc(Cl)cc1)c1ccsc1)C1CCN(C(=O)Oc2ccc(Cl)cc2)CC1 (centres unmarked) [CBK060044],100
17,COc1cccc(C2CC(=O)c3c(ccc4ccccc34)N2)c1OC (centres unmarked) [CBK262971],121.106
18,CS(=O)(=O)Nc1nccnc1-c1ccc2c(c1)OCO2 [CBK050934],124.081
19,CS(=O)(=O)c1cc(Br)cc(C(=O)NCCNc2cnccn2)c1F [CBK305731],115.969
20,CC(=O)c1sccc1NS(=O)(=O)c1ccccc1 [CBK038384],111.158
21,CCCC/C=C/c1cnc2[nH]c(=O)n(CC(C)C)c2n1 [CBK064225],153.954
22,COc1ccc(-c2nnn(C3CCNCC3)n2)cc1OC [CBK269870C],136.307
23,CS(=O)(=O)N1CCN(c2ccccc2NC(=O)CSc2ccc(Cl)cc2)CC1 [CBK267607],120.027
24,COc1cc(CC(=O)Nc2cccc(-c3ccc(SC(F)(F)F)cc3)c2)cc(OC)c1OC [CBK132426],104.595
25,O=S(=O)(NCc1ccc(F)cc1Cl)c1ccc(Cl)c(Cl)c1 [CBK043785],93.2277
26,Cc1cc(S(=O)(=O)Nc2ccc3[nH]ccc3c2)c(C)o1 [CBK155743],108.758

# Looked up above.
# % of control remaining [%] with COc1ccc2nc(Nc3nnc(-c4ccco4)o3)sc2c1 [CBK287486] reads 119.083
# % of control remaining [%] with COc1ccc(CCN2C(=O)CC(Nc3ccc(N4CCOCC4)cc3)C2=O)cc1OC (centres unmarked) [CBK266322] reads 176.933
